From patent publication US9393221B2, “Methods and compounds for reducing intracellular lipid storage” (THE GENERAL HOSPITAL CORPORATION, priority 2011, dated 2016) come the findings set out here.

The test deals with ATGL-KO iPSCs. Kind of test: High throughput iPSC chemical screening, Oil Red O (ORO) lipid accumulation. Further: test concentration or dose not given here. It is filed as cell-based, mouse. The note with it: normalized ORO level vs DMSO-treated cells; compound present during 7 days differentiation, 96-well; negative = decrease in lipid accumulation.

Compound `Br.CN1[C@@H]2CC[C@H]1C[C@@H](OC(=O)C(O)c1ccccc1)C2` (stereo partly drawn) [Homatropine hydrobromide (R,S)] gave a Z-score of 0.6653.
